Measurements reported in paper doi:10.1101/2024.06.18.599568.
Results are given in words; binding and its absence hold for the method and conditions named. In cells and extracts the contact can be indirect. Here binding means that the protein was enriched with, or labelled near, the bait; the list need not be complete.

Chains of the proteins cited; added tags and fusions are not shown. Residues count along the entry.
UniProt Q9WTL8, residues 2-632: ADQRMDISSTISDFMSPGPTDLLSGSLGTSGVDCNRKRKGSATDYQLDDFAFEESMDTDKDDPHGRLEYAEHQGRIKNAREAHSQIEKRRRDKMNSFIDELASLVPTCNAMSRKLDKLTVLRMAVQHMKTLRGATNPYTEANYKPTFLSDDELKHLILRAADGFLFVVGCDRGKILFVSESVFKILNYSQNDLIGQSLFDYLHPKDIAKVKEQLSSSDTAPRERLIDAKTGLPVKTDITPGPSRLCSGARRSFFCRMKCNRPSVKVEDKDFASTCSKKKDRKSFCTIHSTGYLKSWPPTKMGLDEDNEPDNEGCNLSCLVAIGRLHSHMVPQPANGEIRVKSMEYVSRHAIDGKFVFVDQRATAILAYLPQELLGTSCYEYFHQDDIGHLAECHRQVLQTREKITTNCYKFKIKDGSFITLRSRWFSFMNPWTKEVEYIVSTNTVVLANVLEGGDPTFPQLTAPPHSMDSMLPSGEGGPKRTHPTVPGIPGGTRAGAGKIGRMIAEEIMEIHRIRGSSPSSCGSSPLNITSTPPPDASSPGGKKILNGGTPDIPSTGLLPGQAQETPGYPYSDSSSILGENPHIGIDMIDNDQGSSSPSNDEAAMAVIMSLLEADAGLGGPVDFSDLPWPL
UniProt Q61464: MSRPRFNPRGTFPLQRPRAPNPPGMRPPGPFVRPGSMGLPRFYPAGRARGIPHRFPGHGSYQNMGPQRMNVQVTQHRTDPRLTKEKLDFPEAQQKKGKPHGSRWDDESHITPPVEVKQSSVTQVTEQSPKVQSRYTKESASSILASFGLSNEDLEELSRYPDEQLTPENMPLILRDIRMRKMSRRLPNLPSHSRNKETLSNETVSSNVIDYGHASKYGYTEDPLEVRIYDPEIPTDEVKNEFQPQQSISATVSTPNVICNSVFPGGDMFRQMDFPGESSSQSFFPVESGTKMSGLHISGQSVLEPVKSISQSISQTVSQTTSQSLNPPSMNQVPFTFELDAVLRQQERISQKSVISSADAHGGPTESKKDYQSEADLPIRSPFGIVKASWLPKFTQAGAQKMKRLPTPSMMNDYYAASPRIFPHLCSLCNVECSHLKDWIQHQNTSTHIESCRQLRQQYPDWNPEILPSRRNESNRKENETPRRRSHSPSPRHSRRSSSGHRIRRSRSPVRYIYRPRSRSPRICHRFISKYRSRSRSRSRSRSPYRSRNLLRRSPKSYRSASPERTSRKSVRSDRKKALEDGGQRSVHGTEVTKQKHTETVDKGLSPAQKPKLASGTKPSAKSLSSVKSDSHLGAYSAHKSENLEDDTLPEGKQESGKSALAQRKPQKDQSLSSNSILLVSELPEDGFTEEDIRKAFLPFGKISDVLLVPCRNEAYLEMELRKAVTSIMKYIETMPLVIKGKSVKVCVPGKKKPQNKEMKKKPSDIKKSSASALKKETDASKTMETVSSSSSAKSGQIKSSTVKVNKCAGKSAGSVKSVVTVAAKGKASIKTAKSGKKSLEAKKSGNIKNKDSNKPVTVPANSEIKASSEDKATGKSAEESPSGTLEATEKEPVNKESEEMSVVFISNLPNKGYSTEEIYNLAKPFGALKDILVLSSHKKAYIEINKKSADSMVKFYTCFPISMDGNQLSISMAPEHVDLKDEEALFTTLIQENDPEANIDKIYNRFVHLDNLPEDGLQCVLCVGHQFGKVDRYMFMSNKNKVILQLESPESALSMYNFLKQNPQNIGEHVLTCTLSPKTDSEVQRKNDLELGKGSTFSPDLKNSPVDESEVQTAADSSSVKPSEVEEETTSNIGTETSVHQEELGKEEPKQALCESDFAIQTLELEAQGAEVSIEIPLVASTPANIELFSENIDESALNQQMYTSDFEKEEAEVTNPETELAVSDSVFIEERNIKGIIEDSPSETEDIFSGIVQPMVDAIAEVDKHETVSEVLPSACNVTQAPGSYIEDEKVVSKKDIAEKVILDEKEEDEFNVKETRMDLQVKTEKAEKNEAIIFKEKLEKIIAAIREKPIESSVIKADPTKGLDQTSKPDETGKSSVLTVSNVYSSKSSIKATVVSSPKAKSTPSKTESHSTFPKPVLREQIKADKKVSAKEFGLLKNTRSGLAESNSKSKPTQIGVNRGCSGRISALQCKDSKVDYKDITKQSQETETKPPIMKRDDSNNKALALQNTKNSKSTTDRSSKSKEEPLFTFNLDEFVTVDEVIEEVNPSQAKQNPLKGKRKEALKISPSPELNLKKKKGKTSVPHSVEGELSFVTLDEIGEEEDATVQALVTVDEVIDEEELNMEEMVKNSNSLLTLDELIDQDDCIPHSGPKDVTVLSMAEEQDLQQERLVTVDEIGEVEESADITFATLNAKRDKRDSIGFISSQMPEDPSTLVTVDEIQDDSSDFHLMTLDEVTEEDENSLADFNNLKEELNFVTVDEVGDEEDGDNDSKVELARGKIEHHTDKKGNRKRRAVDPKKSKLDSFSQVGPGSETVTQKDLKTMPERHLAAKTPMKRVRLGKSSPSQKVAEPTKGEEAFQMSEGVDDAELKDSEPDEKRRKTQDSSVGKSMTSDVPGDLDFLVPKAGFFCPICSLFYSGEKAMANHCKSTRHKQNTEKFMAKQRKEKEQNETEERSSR
UniProt Q6PR54: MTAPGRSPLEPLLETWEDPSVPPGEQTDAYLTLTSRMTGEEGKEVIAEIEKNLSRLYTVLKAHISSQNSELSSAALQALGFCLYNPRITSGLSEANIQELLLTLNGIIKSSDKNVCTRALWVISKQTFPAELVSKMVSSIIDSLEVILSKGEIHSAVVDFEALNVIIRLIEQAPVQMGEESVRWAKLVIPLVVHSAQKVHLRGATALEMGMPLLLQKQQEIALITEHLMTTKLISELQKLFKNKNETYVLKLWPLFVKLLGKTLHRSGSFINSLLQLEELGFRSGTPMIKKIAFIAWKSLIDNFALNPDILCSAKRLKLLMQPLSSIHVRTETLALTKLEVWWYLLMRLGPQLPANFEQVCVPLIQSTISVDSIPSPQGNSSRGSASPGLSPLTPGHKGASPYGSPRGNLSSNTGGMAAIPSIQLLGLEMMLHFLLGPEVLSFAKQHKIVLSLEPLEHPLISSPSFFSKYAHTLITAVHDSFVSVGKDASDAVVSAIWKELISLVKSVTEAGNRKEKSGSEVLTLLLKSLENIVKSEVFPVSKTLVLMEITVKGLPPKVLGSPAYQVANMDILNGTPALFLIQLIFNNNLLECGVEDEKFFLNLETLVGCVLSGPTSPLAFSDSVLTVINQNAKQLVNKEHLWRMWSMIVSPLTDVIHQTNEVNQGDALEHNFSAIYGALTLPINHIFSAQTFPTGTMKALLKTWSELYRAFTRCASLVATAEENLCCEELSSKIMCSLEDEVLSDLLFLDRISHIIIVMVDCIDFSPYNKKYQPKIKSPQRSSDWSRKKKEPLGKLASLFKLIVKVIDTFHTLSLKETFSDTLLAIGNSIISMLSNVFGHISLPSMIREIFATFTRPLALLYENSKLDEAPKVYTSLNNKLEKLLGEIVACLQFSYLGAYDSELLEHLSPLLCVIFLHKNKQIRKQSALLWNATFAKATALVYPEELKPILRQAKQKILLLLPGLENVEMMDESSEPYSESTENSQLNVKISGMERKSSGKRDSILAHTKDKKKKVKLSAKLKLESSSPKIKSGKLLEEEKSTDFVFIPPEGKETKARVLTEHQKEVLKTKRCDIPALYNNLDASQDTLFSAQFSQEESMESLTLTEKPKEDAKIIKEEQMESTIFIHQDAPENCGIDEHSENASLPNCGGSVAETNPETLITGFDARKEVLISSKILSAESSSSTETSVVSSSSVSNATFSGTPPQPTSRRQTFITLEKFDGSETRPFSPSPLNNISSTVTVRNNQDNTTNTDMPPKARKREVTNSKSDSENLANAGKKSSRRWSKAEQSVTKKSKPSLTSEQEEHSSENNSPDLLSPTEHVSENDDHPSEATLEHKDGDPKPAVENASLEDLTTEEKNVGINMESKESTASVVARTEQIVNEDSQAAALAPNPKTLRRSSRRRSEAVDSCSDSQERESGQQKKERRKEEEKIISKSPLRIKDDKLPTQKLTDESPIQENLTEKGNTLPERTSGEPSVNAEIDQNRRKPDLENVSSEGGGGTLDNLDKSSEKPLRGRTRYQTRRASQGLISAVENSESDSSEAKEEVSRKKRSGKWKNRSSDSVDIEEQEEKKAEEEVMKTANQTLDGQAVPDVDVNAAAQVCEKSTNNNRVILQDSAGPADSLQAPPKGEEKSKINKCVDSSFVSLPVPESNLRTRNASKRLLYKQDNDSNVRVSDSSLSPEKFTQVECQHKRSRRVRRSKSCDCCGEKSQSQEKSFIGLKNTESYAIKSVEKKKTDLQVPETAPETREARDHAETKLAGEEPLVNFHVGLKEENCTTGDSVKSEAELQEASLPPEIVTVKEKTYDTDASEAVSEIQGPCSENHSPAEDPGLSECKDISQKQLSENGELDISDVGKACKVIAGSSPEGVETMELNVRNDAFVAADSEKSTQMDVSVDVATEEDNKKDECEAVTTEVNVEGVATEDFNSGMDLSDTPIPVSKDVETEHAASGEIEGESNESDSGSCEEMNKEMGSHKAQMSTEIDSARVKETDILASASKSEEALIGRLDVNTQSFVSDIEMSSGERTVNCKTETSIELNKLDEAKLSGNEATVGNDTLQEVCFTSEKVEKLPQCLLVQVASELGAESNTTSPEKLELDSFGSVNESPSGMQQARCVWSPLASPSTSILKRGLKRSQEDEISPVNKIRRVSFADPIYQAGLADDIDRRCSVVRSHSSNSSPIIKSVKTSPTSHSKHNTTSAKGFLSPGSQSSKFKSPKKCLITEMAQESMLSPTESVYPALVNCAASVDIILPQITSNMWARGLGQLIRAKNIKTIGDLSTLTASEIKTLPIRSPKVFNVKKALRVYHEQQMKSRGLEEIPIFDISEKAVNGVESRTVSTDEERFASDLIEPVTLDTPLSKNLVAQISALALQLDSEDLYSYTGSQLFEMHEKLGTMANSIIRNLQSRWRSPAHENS

B1: ZFP281 (protein, UniProt Q99LI5 1-893)
chain: MKIGSGFLSGGGGPSSSGGSGSGGSSGSASGGSGGGRRAEMEPTFPQSMVMFNHRLPPVTSFTRPAGTAAPPPQCVLSSSTSAAPAAEPPPPPAPDMTFKKEPAASAAAFPSQRTSWGFLQSLVSIKQEKPADPEEQPSHHHHHHHHYGGLFAGAEERSPGLGGGEGGSHGVIQDLSLLHQHAQQQPAQHHRDVLLSSGSRTDEHGNQEPKQDANVKKAKRPKPESQGIKAKRKPSASSKPLVGEGEGAVLSPSQKPHICDHCSAAFRSSYHLRRHVLIHTGERPFQCSQCSMGFIQKYLLQRHEKIHSREKPFGCDQCSMKFIQKYHMERHKRTHSGEKPYKCDTCQQYFSRTDRLLKHRRTCGEAIAKGAASAEPGSSNHNSMGNLAVLSQGNTSSSRRKSKSKSIAIENKEHKTGKTNESQMSNNINMQSYSVEMPTVSTSGSIIGTGIDELQKRVPKLIFKKGSRKNADKSYLNFVSPLPDVVGQKSLSGKPGGSLGIVSNNSVETISLLQSTSGKQGPISSNYDDAMQFSKKRRYLPTASSNSAFSINVGHMVSQQSVIQSAGVSVLDNEAPLSLIDSSALNAEIKSCHDKSGIPDEVLQSILDQYSGKSETQKEDPFNLTEPRVDLHTSGEHSELVQEENLSPGTQTPSNDKTSMLQEYSKYLQQAFEKSTNAGFTLGHGFQFVSLSSPLHNHTLFPEKQIYTTSPLECGFGQSVTSVLPSSLPKPPFGMLFGSQPGLYLSALDATHQQLTPSQELDDLIDSQKNLETSSAFQSSSQKLTSQKEQQKNLESSTSFQIPSQELASQIDPQKDIEPRTTYQIENFAQAFGSQFKSGSRVPMTFITNSNGEVDHRVRTSVSDFSGYTNMMSDVSEPCSTRVKTPTSQSYR
B2: ZFP326 (protein, UniProt O88291 1-580)
chain: MDFEDDYVHSTCRGAYQDFNGMDRDYGPGSYGGLDRDYGHGSYGGQRSMDSYLNQSYGMDNHSGGGGGSRFGPYESYDSRSSLGGRDLYRSGYGFNEPEQTRFGGSYGGRFESSYRNSLDSFGGRNQGGSSWEAPYSRSKLRPGFMEDRGRENYSSYSSFSSPHMKPAPVGSRGRGTPAYPESTFGSRSYDAFGGPSTGRGRGRGHMGDFGSFHRPGIIVDYQNKPANVTIATARGIKRKMMQIFIKPGGAFIKKPKLAKPMDKMNLSKSPTKTDPKNEEEEKRRIEARREKQRRRREKNSEKYGDGYRMAFTCSFCKFRTFEEKDIELHLESSSHQETLDHIQKQTKFDKVVMEFLHECMVNKFKKASIRKQQTLNHPEAYKIIEKDIMEGVTADDHMMKVETVHCSACSVYIPALHSSVQLHLKSPDHSKGKQAYKEQIKRESVLTATSILNNPIVKARYERFVKGENPFEIQDHPQDQQIEGDEEDEEKIDEPIEEEEEEEEEEEEEGEEAGSVEEEGDVEGEEGTAEAAAAGEADAVGEAEGAGEAEEAEEEEEEEGTQEFAAQACATEQCEHRQM

target: FLAG-BMAL1 (2XFLAG on the N-terminus of BMAL1 protein) (mouse) (UniProt Q9WTL8); test: affinity purification with mass spectrometry

binding, binds:
ZFP638 (from UniProt Q61464 1-1960), RIF1 (from UniProt Q6PR54 1-2419), B1, B2
